Results are given in words; binding and its absence hold for the method and conditions named. In cells and extracts the contact can be indirect. Here binding means that the protein was enriched with, or labelled near, the bait; the list need not be complete.
Target: T1, sodium iodide symporter (NIS) (UniProt Q92911)
T1 sequence: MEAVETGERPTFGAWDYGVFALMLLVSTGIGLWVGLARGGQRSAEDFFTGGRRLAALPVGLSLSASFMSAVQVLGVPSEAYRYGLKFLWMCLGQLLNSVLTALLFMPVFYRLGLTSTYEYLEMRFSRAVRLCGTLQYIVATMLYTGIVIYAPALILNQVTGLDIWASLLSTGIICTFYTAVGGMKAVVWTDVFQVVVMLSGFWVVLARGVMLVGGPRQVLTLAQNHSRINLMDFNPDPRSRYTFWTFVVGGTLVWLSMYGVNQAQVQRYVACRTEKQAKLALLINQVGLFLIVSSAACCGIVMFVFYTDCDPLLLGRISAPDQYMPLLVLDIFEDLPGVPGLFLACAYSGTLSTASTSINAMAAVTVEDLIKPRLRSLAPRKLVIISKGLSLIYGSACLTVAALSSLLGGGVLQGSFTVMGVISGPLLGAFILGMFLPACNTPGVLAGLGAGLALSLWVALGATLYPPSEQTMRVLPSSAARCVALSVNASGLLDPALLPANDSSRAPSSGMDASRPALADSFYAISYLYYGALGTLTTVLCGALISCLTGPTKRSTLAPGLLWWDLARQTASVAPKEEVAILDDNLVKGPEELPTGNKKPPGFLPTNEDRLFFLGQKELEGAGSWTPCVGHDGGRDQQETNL
Test: affinity purification with mass spectrometry; only 'mass spectrometry' is printed; bait, cells and conditions not stated

binding: binds
Substance: VCP (from UniProt P55072 1-806)

Reference: publication PMC6862723
